{"source": "the supplement of paper PMC8728848", "binders": {"B1": {"name": "PX9916F-bfa-443-24-443 (Bacteroides fragilis) (protein)", "chain": "DIRPVGSVIPQTAEEYRALLARAYLNVPNDRGLACLRSDEMLVNDNEYDRNSYGDIERWNDVSPFPGTSQFTWSNFYNVLFIANQVIESQKEITEGTPEVVNQLVGEAHLLRAYLHFVLVNLHGQPYTKSGALNSKSIPLKLDTDLEKTLGRNTVEEVYTSILSDIEHARELINKEKWETVFSYRFNVLSVDALQSRVSLYMGAWPKCLESAEAVLAKKSVLVDMNETPLALPNHFESVESITALEQVMGSSVNNAVWVPATFLALYQEGDKRLAAYFAAPDENGNRKSSKGGKREFSCTFRVGELYLNAAEAAANMDKLPHARMRLLELMRKRYTPEAYDKKENAVNVMDKNALISEILNERARELAFEGHRWFDLRRTTRPRMVKVLQGKTYILEQDDPRYTIPIPRDAIAANPGLAN"}}, "assay_in_all_cases": "glycan array binding signal (z-score within array); higher = stronger binding", "settings_in_all_cases": "glycan notation: IUPAC condensed, linker removed", "key": {"[1]": {"biological_target": "Gal(a1-3)Gal(b1-4)GlcNAc(b1-2)Man", "how_it_was_run": "(§1)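 Glycan array data came from 3228 arrays in the Consortium for Functional Glycomics database, and only arrays with an available protein sequence were kept. Glycan names were put into IUPAC-condensed notation, and columns mapping to the same glycan were averaged. The binding signal is a within-array Z-score, averaged across arrays of one protein sequence run at different concentrations or buffers and across linkers. A negative Z-score can be read as non-binding.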"}, "[2]": {"biological_target": "Gal(a1-3)Gal(b1-4)GlcNAc(b1-2)Man(a1-3)[Gal(a1-3)Gal(b1-4)GlcNAc(b1-2)Man(a1-6)]Man(b1-4)GlcNAc(b1-4)GlcNAc", "how_it_was_run": "as §1"}, "[3]": {"biological_target": "Gal(a1-3)Gal(b1-4)GlcNAc(b1-3)GalNAc", "how_it_was_run": "as §1"}, "[4]": {"biological_target": "Gal(a1-3)Gal(b1-4)GlcNAc(b1-6)GalNAc", "how_it_was_run": "as §1"}, "[5]": {"biological_target": "Gal(a1-3)Gal(b1-4)[Fuc(a1-3)]GlcNAc", "how_it_was_run": "as §1"}, "[6]": {"biological_target": "Gal(a1-3)Gal(b1-4)[Fuc(a1-3)]GlcNAc(b1-2)Man(a1-3)[Gal(a1-3)Gal(b1-4)[Fuc(a1-3)]GlcNAc(b1-2)Man(a1-6)]Man(b1-4)GlcNAc(b1-4)GlcNAc", "how_it_was_run": "as §1"}, "Gal(a1-3)GalNAc": {"biological_target": "Gal(a1-3)GalNAc", "how_it_was_run": "as §1"}, "[7]": {"biological_target": "Gal(a1-3)[Gal(a1-4)]Gal(b1-4)GlcNAc", "how_it_was_run": "as §1"}, "[8]": {"biological_target": "Gal(a1-4)Gal(b1-3)GlcNAc(b1-2)Man(a1-3)[Gal(a1-4)Gal(b1-3)GlcNAc(b1-2)Man(a1-6)]Man(b1-4)GlcNAc(b1-4)GlcNAc", "how_it_was_run": "as §1"}, "Gal(a1-4)Gal(b1-4)Glc": {"biological_target": "Gal(a1-4)Gal(b1-4)Glc", "how_it_was_run": "as §1"}, "Gal(a1-4)Gal(b1-4)GlcNAc": {"biological_target": "Gal(a1-4)Gal(b1-4)GlcNAc", "how_it_was_run": "as §1"}, "[9]": {"biological_target": "Gal(a1-4)Gal(b1-4)GlcNAc(b1-2)Man(a1-3)[Gal(a1-4)Gal(b1-4)GlcNAc(b1-2)Man(a1-6)]Man(b1-4)GlcNAc(b1-4)GlcNAc", "how_it_was_run": "as §1"}, "[10]": {"biological_target": "Gal(a1-4)Gal(b1-4)GlcNAc(b1-3)Gal(b1-4)Glc", "how_it_was_run": "as §1"}, "Gal(a1-4)GlcNAc": {"biological_target": "Gal(a1-4)GlcNAc", "how_it_was_run": "as §1"}, "Gal(a1-6)Glc": {"biological_target": "Gal(a1-6)Glc", "how_it_was_run": "as §1"}, "Gal(b1-2)Gal": {"biological_target": "Gal(b1-2)Gal", "how_it_was_run": "as §1"}, "Gal(b1-3)Gal": {"biological_target": "Gal(b1-3)Gal", "how_it_was_run": "as §1"}, "Gal(b1-3)Gal(b1-4)GlcNAc": {"biological_target": "Gal(b1-3)Gal(b1-4)GlcNAc", "how_it_was_run": "as §1"}, "Gal(b1-3)GalNAc": {"biological_target": "Gal(b1-3)GalNAc", "how_it_was_run": "as §1"}, "[11]": {"biological_target": "Gal(b1-3)GalNAc(a1-3)[Fuc(a1-2)]Gal(b1-4)Glc", "how_it_was_run": "as §1"}, "[12]": {"biological_target": "Gal(b1-3)GalNAc(a1-3)[Fuc(a1-2)]Gal(b1-4)GlcNAc", "how_it_was_run": "as §1"}, "Gal(b1-3)GalNAc(b1-3)Gal": {"biological_target": "Gal(b1-3)GalNAc(b1-3)Gal", "how_it_was_run": "as §1"}, "[13]": {"biological_target": "Gal(b1-3)GalNAc(b1-3)Gal(a1-4)Gal(b1-4)Glc", "how_it_was_run": "as §1"}, "[14]": {"biological_target": "Gal(b1-3)GalNAc(b1-4)Gal(b1-4)Glc", "how_it_was_run": "as §1"}, "[15]": {"biological_target": "Gal(b1-3)GalNAc(b1-4)[Neu5Ac(a2-3)]Gal(b1-4)Glc", "how_it_was_run": "as §1"}, "Gal(b1-3)GlcNAc": {"biological_target": "Gal(b1-3)GlcNAc", "how_it_was_run": "as §1"}, "[16]": {"biological_target": "Gal(b1-3)GlcNAc(a1-3)Gal(b1-4)GlcNAc", "how_it_was_run": "as §1"}, "[17]": {"biological_target": "Gal(b1-3)GlcNAc(a1-6)Gal(b1-4)GlcNAc", "how_it_was_run": "as §1"}, "Gal(b1-3)GlcNAc(b1-2)Man": {"biological_target": "Gal(b1-3)GlcNAc(b1-2)Man", "how_it_was_run": "as §1"}, "[18]": {"biological_target": "Gal(b1-3)GlcNAc(b1-2)Man(a1-3)[Gal(b1-3)GlcNAc(b1-2)Man(a1-6)]Man(b1-4)GlcNAc(b1-4)GlcNAc", "how_it_was_run": "as §1"}, "[19]": {"biological_target": "Gal(b1-3)GlcNAc(b1-2)Man(a1-3)[Gal(b1-3)GlcNAc(b1-2)Man(a1-6)]Man(b1-4)GlcNAc(b1-4)[Fuc(a1-6)]GlcNAc", "how_it_was_run": "as §1"}, "[20]": {"biological_target": "Gal(b1-3)GlcNAc(b1-2)Man(a1-3)[GlcNAc(b1-4)][Gal(b1-3)GlcNAc(b1-2)Man(a1-6)]Man(b1-4)GlcNAc(b1-4)GlcNAc", "how_it_was_run": "as §1"}, "[21]": {"biological_target": "Gal(b1-3)GlcNAc(b1-2)[Gal(b1-3)GlcNAc(b1-6)]Man(a1-6)[Gal(b1-3)GlcNAc(b1-2)Man(a1-3)]Man(b1-4)GlcNAc(b1-4)GlcNAc", "how_it_was_run": "as §1"}, "[22]": {"biological_target": "Gal(b1-3)GlcNAc(b1-3)Gal(b1-3)GlcNAc", "how_it_was_run": "as §1"}, "[23]": {"biological_target": "Gal(b1-3)GlcNAc(b1-3)Gal(b1-4)Glc", "how_it_was_run": "as §1"}, "[24]": {"biological_target": "Gal(b1-3)GlcNAc(b1-3)Gal(b1-4)GlcNAc", "how_it_was_run": "as §1"}, "[25]": {"biological_target": "Gal(b1-3)GlcNAc(b1-3)Gal(b1-4)GlcNAc(b1-2)Man(a1-3)[Gal(b1-3)GlcNAc(b1-3)Gal(b1-4)GlcNAc(b1-2)Man(a1-6)]Man(b1-4)GlcNAc(b1-4)GlcNAc", "how_it_was_run": "as §1"}}, "note": "The list shows a part of the results."}
{"binder": "B1", "values": [{"measurement": "glycan array binding signal (z-score)", "setting": "[1]", "result": -0.372}, {"measurement": "glycan array binding signal (z-score)", "setting": "[2]", "result": 0.81}, {"measurement": "glycan array binding signal (z-score)", "setting": "[3]", "result": -0.363}, {"measurement": "glycan array binding signal (z-score)", "setting": "[4]", "result": 0.265}, {"measurement": "glycan array binding signal (z-score)", "setting": "[5]", "result": -0.754}, {"measurement": "glycan array binding signal (z-score)", "setting": "[6]", "result": 1.48}, {"measurement": "glycan array binding signal (z-score)", "setting": "Gal(a1-3)GalNAc", "result": -0.469}, {"measurement": "glycan array binding signal (z-score)", "setting": "[7]", "result": 0.094}, {"measurement": "glycan array binding signal (z-score)", "setting": "[8]", "result": 0.443}, {"measurement": "glycan array binding signal (z-score)", "setting": "Gal(a1-4)Gal(b1-4)Glc", "result": -0.55}, {"measurement": "glycan array binding signal (z-score)", "setting": "Gal(a1-4)Gal(b1-4)GlcNAc", "result": -0.178}, {"measurement": "glycan array binding signal (z-score)", "setting": "[9]", "result": 1.5}, {"measurement": "glycan array binding signal (z-score)", "setting": "[10]", "result": -0.404}, {"measurement": "glycan array binding signal (z-score)", "setting": "Gal(a1-4)GlcNAc", "result": -0.265}, {"measurement": "glycan array binding signal (z-score)", "setting": "Gal(a1-6)Glc", "result": -0.823}, {"measurement": "glycan array binding signal (z-score)", "setting": "Gal(b1-2)Gal", "result": 0.596}, {"measurement": "glycan array binding signal (z-score)", "setting": "Gal(b1-3)Gal", "result": -0.318}, {"measurement": "glycan array binding signal (z-score)", "setting": "Gal(b1-3)Gal(b1-4)GlcNAc", "result": -1.38}, {"measurement": "glycan array binding signal (z-score)", "setting": "Gal(b1-3)GalNAc", "result": -0.343}, {"measurement": "glycan array binding signal (z-score)", "setting": "[11]", "result": -0.677}, {"measurement": "glycan array binding signal (z-score)", "setting": "[12]", "result": 0.156}, {"measurement": "glycan array binding signal (z-score)", "setting": "Gal(b1-3)GalNAc(b1-3)Gal", "result": 0.114}, {"measurement": "glycan array binding signal (z-score)", "setting": "[13]", "result": 0.271}, {"measurement": "glycan array binding signal (z-score)", "setting": "[14]", "result": -0.05}, {"measurement": "glycan array binding signal (z-score)", "setting": "[15]", "result": -0.54}, {"measurement": "glycan array binding signal (z-score)", "setting": "Gal(b1-3)GlcNAc", "result": -0.409}, {"measurement": "glycan array binding signal (z-score)", "setting": "[16]", "result": -0.861}, {"measurement": "glycan array binding signal (z-score)", "setting": "[17]", "result": 0.993}, {"measurement": "glycan array binding signal (z-score)", "setting": "Gal(b1-3)GlcNAc(b1-2)Man", "result": -0.681}, {"measurement": "glycan array binding signal (z-score)", "setting": "[18]", "result": 0.347}, {"measurement": "glycan array binding signal (z-score)", "setting": "[19]", "result": 1.79}, {"measurement": "glycan array binding signal (z-score)", "setting": "[20]", "result": -0.193}, {"measurement": "glycan array binding signal (z-score)", "setting": "[21]", "result": -1}, {"measurement": "glycan array binding signal (z-score)", "setting": "[22]", "result": 0.006}, {"measurement": "glycan array binding signal (z-score)", "setting": "[23]", "result": -0.419}, {"measurement": "glycan array binding signal (z-score)", "setting": "[24]", "result": -0.333}, {"measurement": "glycan array binding signal (z-score)", "setting": "[25]", "result": 1.31}]}
